According to patent EP4775208A1, “USE OF PRMT5 INHIBITOR IN TREATMENT OF TUMORS OR CANCERS” (Apeiron Therapeutics (Hong Kong) Ltd., priority 2023, dated 2025):

Test system: NCI-H838 MTAP(-/-) cells
Assay: Inhibition of proliferation of NCI-H838 MTAP(-/-) cells (CellTiter-Glo)
Settings: Homo sapiens, NCI-H838, 144 h, read-out: IC50(nM) NCI-H838 MTAP(-/-)

CN[C@@H]1C[C@H]2O[C@@](C)([C@@H]1OC)n1c3ccccc3c3c4c(c5c6ccccc6n2c5c31)C(=O)NC4 [Staurosporine, reference compound]
IC50: 0.8 nM
